According to patent US7888063B2, “Unnatural reactive amino acid genetic code additions” (The Scripps Research Institute, priority 2003, dated 2011):

B1: EcTyrRS: Escherichia coli tyrosyl-tRNA synthetase, expressed with tRNACUA in yeast (protein, UniProt P0AGJ9 2-424, looked up)
Tyrosine--tRNA ligase: ASSNLIKQLQERGLVAQVTDEEALAERLAQGPIALYCGFDPTADSLHLGHLVPLLCLKRFQQAGHKPVALVGGATGLIGDPSFKAAERKLNTEETVQEWVDKIRKQVAPFLDFDCGENSAIAANNYDWFGNMNVLTFLRDIGKHFSVNQMINKEAVKQRLNREDQGISFTEFSYNLLQGYDFACLNKQYGVVLQIGGSDQWGNITSGIDLTRRLHQNQVFGLTVPLITKADGTKFGKTEGGAVWLDPKKTSPYKFYQFWINTADADVYRFLKFFTFMSIEEINALEEEDKNSGKAPRAQYVLAEQVTRLVHGEEGLQAAKRITECLFSGSLSALSEADFEQLAQDGVPMVEMEKGADLMQALVDSELQPSRGQARKTIASNAITINGEKQSDPEYFFKEEDRLFGRFTLLRRGKKNYCLICWK

What was measured:
[1] = system: SOD containing azido or alkyne amino acid; test: Protein labeling by azide-alkyne [3+2] cycloaddition, in-gel fluorescence and A280/A495; details: 3 with alkyne protein, 4 with azido protein
[2] = system: MaV203 pGADGAL4(T44TAG, R110TAG); test: Model positive selection for functional EcTyrRS; type: cell-based, Saccharomyces cerevisiae

| Molecule | reaction with the protein bearing the same reactive group (selectivity of bioconjugation) [1] | Enrichment factor ([2]; starting ratio EcYRS:A5 1:10) | Enrichment factor ([2]; starting ratio EcYRS:A5 1:10^2) | Enrichment factor ([2]; starting ratio EcYRS:A5 1:10^3) | Enrichment factor ([2]; starting ratio EcYRS:A5 1:10^4) | Enrichment factor ([2]; starting ratio EcYRS:A5 1:10^5) |
| --- | --- | --- | --- | --- | --- | --- |
| C#CCNS(=O)(=O)c1cccc2c(N(C)C)cccc12 [chemical structure 3] | no observable reaction |  |  |  |  |  |
| CN(C)c1cccc2c(S(=O)(=O)NCCCN=[N+]=[N-])cccc12 [chemical structure 4] | no observable reaction |  |  |  |  |  |
| B1 |  | >10^ | >10^2 | >10^3 | >10^4 | >10^5 |
